Results reported in patent US20100286057A1.
Results are given in words; binding and its absence hold for the method and conditions named. Some entries that bind do so weakly or less than the wild type.

Chains of the proteins cited; added tags and fusions are not shown. Lines headed by an entry give the natural chain unless they say otherwise; changes in a name come on top.
UniProt Q07812: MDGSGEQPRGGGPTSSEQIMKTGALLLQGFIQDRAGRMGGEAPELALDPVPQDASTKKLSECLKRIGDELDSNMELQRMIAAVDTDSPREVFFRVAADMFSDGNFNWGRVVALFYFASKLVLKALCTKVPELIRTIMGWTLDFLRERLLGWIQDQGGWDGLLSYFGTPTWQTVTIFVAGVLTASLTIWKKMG

Key:
[1] = biological target: BAX (Homo sapiens (Human)) (UniProt Q07812); assay: assay not named
[2] = biological target: BAX (Homo sapiens (Human)) (UniProt Q07812); assay: 1H-15N HSQC / PRE NMR

binding [1]	binding [2]	Binder
binds		ESQEDIIRNIARHLAQVGDEMDRSI (amino terminus capped with myristic acid; hydrocarbon staple) [myristoylated BID SAHB compound]
	binds	EICIAQELRRIGDEFNAYYARR (MTSL nitroxide spin label on Cys 147; hydrocarbon staple) [BIM SAHB(W147C-MTSL)]

The next lines start with the binder.

Binder	binding [1]	binding [2]
ESQEDIIRNIARHLAQVGDEMDRSI (hydrocarbon staple) [BID SAHB]	binds	
EIWIAQELRRIGDEFNAYYCRR (MTSL nitroxide spin label on Cys 164; hydrocarbon staple) [BIM SAHB(A164C-MTSL)]		binds
